Laboratory results from patent US20170007620A1 (priority 2015, published 2017).
At least one compound was matched to its structure with a doubt left.

Assays:
[1] = tested on: dopamine, norepinephrine and epinephrine; test: Dopamine, norepinephrine and epinephrine levels in DHEA-treated animals after BH4 replenishment; type: in vivo
serotonin = test: Serotonin in intestinal mucosa biopsies of DHEA-treated neutered dogs (FIG. 7); type: in vivo; conditions: DHEA 10 mg/kg daily for 90 days ± supplementation
phenylalanine = test: Plasma phenylalanine in DHEA-treated neutered dogs (FIG. 10); conditions: DHEA-treated neutered dogs ± reconstitution protocol

For `C[C@H](O)[C@H](O)[C@H]1CNc2nc(N)[nH]c(=O)c2N1` [BH4, tetrahydrobiopterin], the “dopamine, norepinephrine and epinephrine levels” value [1] was “restoring normal or near normal”, the serotonin level (serotonin) was “reconstitution” and the plasma phenylalanine levels (phenylalanine) was “reduction”.
